Data reported in patent publication EP4197526A1, “HYDROGEL FORMULATION COMPRISING ZEBULARINE AND RETIONIC ACID” (Uniwersytet Gdanski, priority 2021, dated 2023).
For at least one compound, name, drawing or mass did not settle the structure.

Test: In vitro release from alginate hydrogel in a Franz chamber
Format: physicochemical
Settings: Franz chamber conditions

## CC1=C(/C=C/C(C)=C/C=C/C(C)=C/C(=O)O)C(C)(C)CCC1 [retinoic acid]
  release from alginate formulations: No release
